These are yes or no findings as the source states them, for the method shown. Binding seen in cells or lysates may run through a third protein. Some binding calls cover weakened binding; strength is not graded here. One block for each binder: values may come before it.
Target: STREP2-FLAG-tagged RCC1L^V1 (human) (UniProt Q96I51)
Experiment: co-IP; STREP2-FLAG-tagged RCC1L isoform as bait, captured on Strep-Tactin Sepharose overnight from trypsin-treated, sucrose gradient-purified HEK mitochondria lysed with 0.8% DDM; 10 washes; elution with 10 mM desthiobiotin; endogenous proteins in the elution found by immunoblot

Chains of the proteins cited; added tags and fusions are not shown. Residues count along the entry.
UniProt Q96I51, residues 38-464: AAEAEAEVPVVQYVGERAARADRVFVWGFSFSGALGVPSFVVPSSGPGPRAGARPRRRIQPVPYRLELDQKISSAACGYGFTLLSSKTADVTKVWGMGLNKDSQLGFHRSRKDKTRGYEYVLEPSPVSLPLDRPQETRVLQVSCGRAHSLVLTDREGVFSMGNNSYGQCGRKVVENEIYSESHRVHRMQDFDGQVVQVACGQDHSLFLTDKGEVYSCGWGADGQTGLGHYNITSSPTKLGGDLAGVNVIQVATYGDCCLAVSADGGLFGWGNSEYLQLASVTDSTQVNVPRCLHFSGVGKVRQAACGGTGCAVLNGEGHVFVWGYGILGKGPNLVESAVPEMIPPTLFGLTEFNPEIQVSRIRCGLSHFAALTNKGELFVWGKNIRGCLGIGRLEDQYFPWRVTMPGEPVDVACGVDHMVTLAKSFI

binding: binds
B1: RPUSD4 (enzyme, UniProt Q96CM3 16-377)
chain: NGQGCGSLFTLVSKPFCAAAAASTAINAQRLAEKLRAQKREQDTKKEPVSTNAVQRRVQEIVRFTRQLQRVHPNVLAKALTRGILHQDKNLVVINKPYGLPVHGGPGVQLCITDVLPILAKMLHGHKAEPLHLCHRLDKETTGVMVLAWDKDMAHQVQELFRTRQVVKKYWAITVHVPMPSAGVVDIPIVEKEAQGQQQHHKMTLSPSYRMDDGKMVKVRRSRNAQVAVTQYQVLSSTLSSALVELQPITGIKHQLRVHLSFGLDCPILGDHKYSDWNRLAPQKLSVGTLKKLGLEQSKARYIPLHLHARQLILPALGSGKEELNLVCKLPRFFVHSLHRLRLEMPNEDQNENNEAKCLGAQ

binding: binds
B2: TRUB2 (enzyme, UniProt O95900 11-331)
chain: GLFAVYKPPGLKWKHLRDTVELQLLKGLNARKPPAPKQRVRFLLGPMEGSEEKELTLTATSVPSFINHPLVCGPAFAHLKVGVGHRLDAQASGVLVLGVGHGCRLLTDMYNAHLTKDYTVRGLLGKATDDFREDGRLVEKTTYDHVTREKLDRILAVIQGSHQKALVMYSNLDLKTQEAYEMAVRGLIRPMNKSPMLITGIRCLYFAPPEFLLEVQCMHETQKELRKLVHEIGLELKTTAVCTQVRRTRDGFFTLDSALLRTQWDLTNIQDAIRAATPQVAAELEKSLSPGLDTKQLPSPGWSWDSQGPSSTLGLERGAGQ

binding: binds
B3: MTG2 (enzyme, UniProt Q9H4K7 1-406)
chain: MAPARCFSARLRTVFQGVGHWALSTWAGLKPSRLLPQRASPRLLSVGRADLAKHQELPGKKLLSEKKLKRYFVDYRRVLVCGGNGGAGASCFHSEPRKEFGGPDGGDGGNGGHVILRVDQQVKSLSSVLSRYQGFSGEDGGSKNCFGRSGAVLYIRVPVGTLVKEGGRVVADLSCVGDEYIAALGGAGGKGNRFFLANNNRAPVTCTPGQPGQQRVLHLELKTVAHAGMVGFPNAGKSSLLRAISNARPAVASYPFTTLKPHVGIVHYEGHLQIAVADIPGIIRGAHQNRGLGSAFLRHIERCRFLLFVVDLSQPEPWTQVDDLKYELEMYEKGLSARPHAIVANKIDLPEAQANLSQLRDHLGQEVIVLSALTGENLEQLLLHLKVLYDAYAEAELGQGRQPLRW
